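Whole-cell growth test on Mycobacterium tuberculosis, read after 4 days in a medium based on cholesterol and the lipid DPPC; the read-out is not stated. Compounds at 50 µM. The record gives no direction; compounds that gave an IC50 in retests scored well above the rest, so higher reads as more growth inhibition. About 69,000 compounds were tested under these conditions; 0.54% (about 370) showed 50% or more at least once.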

Each number is a percent effect as filed. The controls that fix the scale are not given in the record; negative values are as filed. This is an unselected part of the compounds tested. Two or more numbers in one place are separate tests of the same structure; such repeats can differ widely.

{"compound": "CCCC(=O)N1CCC(O)(Cn2c(CC)nc3ccccc3c2=O)CC1.Cl", "percent effect": -14.05}
{"compound": "Cc1cccc2c1ccn2CCC(=O)Nc1c2c(nn1C)CSC2", "percent effect": -0.3458}
{"compound": "O=C1CC2(CCN(Cc3cccs3)C2)CN1c1cccc(F)c1", "stereo": "stereo not given", "percent effect": "43.05 and 40.65"}
{"compound": "Cc1nc(C)n(CC2CCCN(Cc3ccc(F)cc3C#N)C2)n1", "stereo": "stereo not given", "percent effect": 3.778}
{"compound": "[H][C@@]12CCN(S(=O)(=O)C3CC3)[C@@]1([H])CCN2C(=O)c1ccco1", "percent effect": -5.037}
{"compound": "Cc1noc(C)c1C(=O)NCCc1cccs1", "percent effect": -20.86}
{"compound": "CCC(O)CN1CCN(C(=O)c2sccc2C2CC2)CC1", "stereo": "stereo not given", "percent effect": 21.2}
{"compound": "CC(C)Nc1nc(N2CCCC2)nc2c1CN(C(C)C)CC2", "percent effect": 35.03}
{"compound": "CCOc1cccc(CNc2ccccc2C(=O)OC)c1O", "percent effect": -10.24}
{"compound": "CCOc1ccc(C(=O)N2CCCC2c2cnn(C)c2)cn1", "stereo": "stereo not given", "percent effect": -8.234}
{"compound": "O=C(CNc1cc(-c2ccccc2)nc2ccnn12)NC1CC1", "percent effect": "4.169 and -3.539"}
{"compound": "COc1cccc(CN(C)CC(=O)NC2(C)CCS(=O)(=O)C2)c1", "stereo": "stereo not given", "percent effect": 10.69}
{"compound": "CCN(CCS(=O)(=O)c1ccc(Cl)cc1)Cc1ccc(OC)c(OC)c1", "percent effect": -2.626}
{"compound": "O=C(c1ccc[nH]1)N1CCc2ncc(Cn3cccn3)n2CC1", "percent effect": -29.06}
{"compound": "[H][C@]12CCN(S(C)(=O)=O)[C@@]1([H])CCC(COCC(=O)N1CCCC1)O2", "stereo": "stereo not given in full", "percent effect": -0.3236}
{"compound": "CCCC(C)C(=O)Nc1ccc(OC)nc1N1CCN(C(C)=O)CC1", "stereo": "stereo not given", "percent effect": 6.392}
{"compound": "Cc1cc(CNS(C)(=O)=O)ccc1N(C)C", "percent effect": -0.6023}
{"compound": "Cn1cc(C(=O)N(Cc2ccco2)Cc2cccs2)ccc1=O", "percent effect": -7.511}
{"compound": "CC(NC(=O)Cc1cc2c(cc1Cl)OCCO2)c1ccncn1", "stereo": "stereo not given", "percent effect": -4.56}
{"compound": "Cc1ccc2nc(C)cc(C(=O)NCc3csc(N(C)C)n3)c2c1", "percent effect": -12.26}
{"compound": "CCN1CCN(CC(=O)N2CCOC(Cc3ccc(OC)cc3)C2)CC1", "stereo": "stereo not given", "percent effect": 9.778}
{"compound": "CCOCc1ccc(NC(=O)N2CCOC3(CCC3)C2)cc1", "percent effect": -10.03}
{"compound": "Cc1cc(=O)n(CC(=O)NCCC(C)C)c(-c2cccc(Cl)c2)n1", "percent effect": 6.029}
{"compound": "CC(C)c1noc(CCC(=O)N(CC2CCOC2)C2CC2)n1", "stereo": "stereo not given", "percent effect": 8.007}
{"compound": "COc1ccc(CNC(=O)NC(C)(CO)C2CC2)c(C(F)(F)F)c1", "stereo": "stereo not given", "percent effect": -5.819}
{"compound": "CC(NC(=O)NCc1ccoc1)c1ccc2c(c1)CC(=O)N2", "stereo": "stereo not given", "percent effect": -6.895}
{"compound": "COc1cc(CNCc2ccc(C(C)O)cc2)cc2c1OCO2", "stereo": "stereo not given", "percent effect": 7.947}
{"compound": "O=C(O)C(F)(F)F.O=C([C@H]1CCCO1)N1CCCC2(CCN(Cc3ccncc3)C2=O)C1", "stereo": "stereo not given in full", "percent effect": -14.95}
{"compound": "C[C@@H]1CN(C(=O)C2CCS(=O)(=O)CC2)C[C@@]1(O)C1CC1", "percent effect": -12.8}
{"compound": "Cc1cc(-c2cc(F)ccc2C(=O)O)nc(C2CCCN(C)C2)n1", "stereo": "stereo not given", "percent effect": -13.1}
{"compound": "CCC(CNS(N)(=O)=O)Oc1ccccc1F", "stereo": "stereo not given", "percent effect": -27.57}
{"compound": "CCC(CC)(CN)NC(C)c1ccccc1", "stereo": "stereo not given", "percent effect": 1.929}
{"compound": "O=C(CN1CCCC1Cn1cccn1)NC1CCOCC1", "stereo": "stereo not given", "percent effect": 7.981}
{"compound": "O=C(O)C(F)(F)F.[H][C@]12CN(Cc3csc(C)n3)C(=O)[C@@]1([H])CN(c1ncc(F)cn1)C2", "percent effect": -10.96}
{"compound": "CCOCC1c2c(ncn2C)CCN1C(=O)c1ccoc1", "stereo": "stereo not given", "percent effect": -38.05}
{"compound": "O=C(NCc1ccccc1)N1CCC2(CC(=O)N(c3ccccc3)C2)C1", "stereo": "stereo not given", "percent effect": "-5.553 and 4.135"}

Once more, the final 4:

compound,percent effect
O=C(CN1CCCC1Cn1cccn1)NC1CCOCC1 (stereo not given),7.981%
O=C(O)C(F)(F)F.[H][C@]12CN(Cc3csc(C)n3)C(=O)[C@@]1([H])CN(c1ncc(F)cn1)C2,-10.96%
CCOCC1c2c(ncn2C)CCN1C(=O)c1ccoc1 (stereo not given),-38.05%
O=C(NCc1ccccc1)N1CCC2(CC(=O)N(c3ccccc3)C2)C1 (stereo not given),-5.553% and 4.135%

Source: ChEMBL document CHEMBL3988442, “University of Dundee, Small-Polar-MMV Screening Library” (2021).